This test has as its target PDL1 (PDL1细胞) (UniProt Q9NZQ7). The experiment in a line: cell ELISA on PDL1 cells. A general note: In an ELISA, binding on a coated surface is turned into a signal by an enzyme label.

By UniProt entry, the sequences of proteins in these tests, tags left out. Residues count along the entry.
UniProt Q9NZQ7, residues 19-290: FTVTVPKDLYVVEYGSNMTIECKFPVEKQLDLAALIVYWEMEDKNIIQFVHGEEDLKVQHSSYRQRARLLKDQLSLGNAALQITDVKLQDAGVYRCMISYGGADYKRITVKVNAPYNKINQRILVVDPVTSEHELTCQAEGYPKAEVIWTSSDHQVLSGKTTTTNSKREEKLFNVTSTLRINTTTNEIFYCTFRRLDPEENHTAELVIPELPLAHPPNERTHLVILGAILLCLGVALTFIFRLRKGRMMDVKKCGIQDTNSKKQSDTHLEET

These are yes or no findings as the source states them, for the method shown. Some binding calls cover weakened binding; strength is not graded here.

B1: PDL1单抗对照402F1 (antibody, human IgG1, kappa, V domains shown)
VH: EVQLQESGPGLVKPSQTLSLTCTVSGDSFSSGYWNWIRQHPGKGLEYIGYVSYTGSTYYIPSLKSRVTISRDTSKNQFSLKLSSVTAADTAVYYCAGYRDWLHGYFDYWGQGTTVTVSS
VL: DIQMTQSPSSLSASVGDRVTITCKASQNVMDNVAWYQQKPGKAPKRLIYSASYRFSGVPSRFSGSGSGTEFTLTISSLQPEDFATYYCQQYNGYPLTFGQGTKLEIKR
For B1, the binding entry was “binds”.

Values taken from CN112830969A.
